These are yes or no findings as the source states them, for the method shown. Binding seen in cells or lysates may run through a third protein. Some binding calls cover weakened binding; strength is not graded here.
Target: alpha-1 antitrypsin preparation Prolastin (AAT-P) (human) (UniProt P01009)
Assay: co-IP; 500 µg AAT-P loaded on 200 µl Alpha1 Antitrypsin Select beads, incubated over night at 4°C with lysate of LPS-primed U937 cells (25 mM HEPES pH 7.2, 1 mM CaCl2, 1 mM MgCl2, 1% Triton-X100); washed, eluted, Western blotting for CD36 and AAT; control without AAT-P; only the target purified

Sequences of proteins named here, by UniProt entry; tags and fusion partners are left off. Residues count along the entry.
UniProt P01009, residues 25-418: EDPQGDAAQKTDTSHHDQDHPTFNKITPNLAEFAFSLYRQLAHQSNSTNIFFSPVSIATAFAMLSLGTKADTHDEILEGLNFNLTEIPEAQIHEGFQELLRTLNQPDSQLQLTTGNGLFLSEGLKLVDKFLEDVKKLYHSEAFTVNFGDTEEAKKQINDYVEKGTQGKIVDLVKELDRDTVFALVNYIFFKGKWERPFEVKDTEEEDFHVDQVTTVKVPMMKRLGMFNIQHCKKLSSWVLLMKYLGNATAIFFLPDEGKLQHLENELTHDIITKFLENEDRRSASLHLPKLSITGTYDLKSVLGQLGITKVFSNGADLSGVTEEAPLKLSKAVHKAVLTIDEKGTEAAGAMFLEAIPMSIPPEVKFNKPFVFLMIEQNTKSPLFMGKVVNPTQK
UniProt P16671: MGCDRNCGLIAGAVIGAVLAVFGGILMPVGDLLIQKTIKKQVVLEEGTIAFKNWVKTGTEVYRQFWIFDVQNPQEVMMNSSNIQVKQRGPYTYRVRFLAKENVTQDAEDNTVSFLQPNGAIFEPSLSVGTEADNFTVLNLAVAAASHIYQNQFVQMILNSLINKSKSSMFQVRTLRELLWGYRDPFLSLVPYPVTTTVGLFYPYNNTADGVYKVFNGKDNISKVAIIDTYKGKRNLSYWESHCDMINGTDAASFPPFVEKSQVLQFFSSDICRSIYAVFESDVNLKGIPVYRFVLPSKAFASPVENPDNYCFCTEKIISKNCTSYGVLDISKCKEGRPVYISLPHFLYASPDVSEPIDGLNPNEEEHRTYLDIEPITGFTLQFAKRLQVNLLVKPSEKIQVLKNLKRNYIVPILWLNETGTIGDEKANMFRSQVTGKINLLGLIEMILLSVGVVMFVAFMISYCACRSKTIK

CD36 (from UniProt P16671 1-472) (receptor)
binding: binds

From PMC5996888
